The values that follow come from PMC5872055.

Construct, isoform or probe ends are uncertain for at least one entry. The comparison behind a weaker result is the experiment's own reference, which may not be listed here.

One series has as its system thrombin. Nature of the series: electrochemical impedance spectroscopy. To be noted: non-zero response, markedly smaller than lysozyme, attributed to non-specific adsorption; EIS: proteins in 50 mM phosphate buffer (PBS) pH 7.4, 15 min incubation, rinse with PBS and DI water, then ferro-/ferricyanide read-out; SWV: 10 mM PBS; commercial protein; single-stranded DNA.
Series [1] concerns the target bovine serum albumin (bovine) (UniProt P02769). Nature of the series: electrochemical impedance spectroscopy. To be noted: non-zero response, markedly smaller than lysozyme, attributed to non-specific adsorption; EIS: proteins in 50 mM phosphate buffer (PBS) pH 7.4, 15 min incubation, rinse with PBS and DI water, then ferro-/ferricyanide read-out; SWV: 10 mM PBS; commercial protein; single-stranded DNA.

For the sequence “ATCAGGGCTAAAGAGTGCAGAGTTACTTAG [anti-lysozyme aptamer (30-mer)]”, the binding result (with thrombin; in series [1]) was “binds more weakly” throughout.
